Reference: the odorant receptor screen of Mainland et al. (2015)
Where “and” joins values, the source holds several entries; their conditions need not be identical. Identical values can stand only once. The list shows a part of the results. Single wells; the ratio to wells without odorant was worked out here, and repeats agree poorly.

Experiments:
Test in all cases: odorant receptor activation (CRE luciferase / Renilla) (fold of no-odor wells); higher = more activation
Settings in all cases: 100 µM
[1] = system: OR2F2 A98V clone 1087
[2] = system: OR2G2 P24A/V120L/R236G clone 1349
[3] = system: OR2G2 clone 1385
[4] = system: OR2G3 clone 1328
[5] = system: OR2G3 clone 1382
[6] = system: OR2G6 clone 1487
[7] = system: OR2H1 clone 1393
[8] = system: OR2H2 L30F/A48V clone 1061
[9] = system: OR2H2 clone 1066
[10] = system: OR2J2 T111A clone 1073
[11] = system: OR2J2 Y74H/T111A/V146A/T218A clone 1402
[12] = system: OR2J2 clone 1403
[13] = system: OR2J2 clone 1404
[14] = system: OR2J3 I228V/M261I clone 1616
[15] = system: OR2K2 clone 1340
[16] = system: OR2K2 clone 1450
[17] = system: OR2L13 clone 1481
[18] = system: OR2L2 clone 1465
[19] = system: OR2L3 clone 1526
[20] = system: OR2L5 clone 1697

SMILES	odorant receptor activation [1]	odorant receptor activation [2]	odorant receptor activation [3]	odorant receptor activation [4]	odorant receptor activation [5]	odorant receptor activation [6]	odorant receptor activation [7]	odorant receptor activation [8]	odorant receptor activation [9]	odorant receptor activation [10]	odorant receptor activation [11]	odorant receptor activation [12]	odorant receptor activation [13]	odorant receptor activation [14]	odorant receptor activation [15]	odorant receptor activation [16]	odorant receptor activation [17]	odorant receptor activation [18]	odorant receptor activation [19]	odorant receptor activation [20]
CC(C)CC(=O)O [isovaleric acid]	1.17	1.04	0.769	0.96	0.905	0.775	0.739	0.866	1.15	0.998	0.898	0.866	0.927	0.826	0.791	1	0.74	0.958	0.871	0.898
CCCCCCC=O [heptaldehyde]	1.12 and 1.09	–	1.12 and 0.977	0.432 and 0.761 and 0.751	0.969 and 0.909	–	1.29 and 0.883	1.44 and 0.834	1.08 and 0.92	1.11 and 1.36	0.807 and 0.802	1.25 and 0.828	1.3 and 0.829	1.02	0.916 and 0.977 and 0.961	0.554 and 1.01 and 0.878	–	–	–	0.779
CC1COCc2cc3c(cc21)C(C)(C)C(C)C3(C)C (stereo not drawn) [galaxolide]	3.73	4.47 and 1.69	4.67	1.44 and 1.35	4.02	1.66 and 3.93	4.66	1.92	2.19	1.91	2.33	2.28	2.03	–	4.25 and 5.64	2.44	1.21 and 3.19	–	7.34 and 4.56	3.52 and 1.41
CC(=O)OC1CC2CCC1(C)C2(C)C (stereo not drawn) [isobornyl acetate]	0.743	1.49 and 1.02	0.923	1.14 and 0.955	0.872	0.758 and 0.756	0.84	0.492	0.97	1.03	0.864	0.887	0.932	0.798	1.06 and 0.804	1.12	1.07 and 0.987	1.08 and 1.44	1.06 and 1.08	0.913
O=C1CCCCCCCCCCCC(=O)OCCO1 [ethylene brassylate]	1.69	1.31	1.32	1.3	1.5	1.38	1.68	1.81	1.2	1.15	1.89	1.42	1.41	3.75	1.37	1.82	1.28	1.35	1.17	1.05
C=C(C)C1CCC2=CC(=O)CC(C)C2(C)C1 (stereo not drawn) [amyl laurate]	–	–	–	–	–	–	–	–	–	–	–	–	–	0.69	–	–	–	–	–	1.66
CC12C=CCC1C1CCC3=CC(=O)CCC3(C)C1CC2 (stereo not drawn) [androstadienone]	5.62	1.23 and 1.09	0.952	0.967 and 0.761	0.837	1.07 and 1.2	0.986	1.63	3.24	2.01	0.866	0.911	1.07	–	1.26 and 1.09	1.14	1.19 and 1.23	1.23 and 1.47	0.93 and 1.4	–
CC(C)=CCCC(C)=CC=O [citral]	1.03	1.1	0.162	1.16	0.318	1.57	0.18	1.07	1.24	3.74	0.319	0.294	0.517	7.34	1.15	0.246	0.999	1.27	1.12	0.023
CC(=O)OC(C)(C)C1CC=C(C)CC1 (stereo not drawn) [terpinyl acetate]	1.28	0.863	0.852	0.952	1.01	1.03	0.847	1.6	1.34	1.41	0.881	0.781	0.92	0.814	0.674	0.806	0.881	1.19	1	1.06
CCCCCCCCOC(C)=O [octyl acetate]	0.899	1.11	1.05	1.22	1.27	0.768	0.993	0.963	1.32	1.38	0.961	0.805	0.995	2.1	1.12	0.8	0.775	0.935	0.909	1.02
CC=Cc1ccc(O)c(OC)c1 [isoeugenol]	0.683	2.71 and 1.07	2.02	1.28 and 0.91	1.23	0.982 and 2.01	1.37	0.601	1.45	5.69	1.28	1.35	1.74	2.11	2.14 and 1.8	1.37	1.09 and 2.12	–	1.61 and 1.79	3.04
CC12C=CCC1C1CCC3CC(=O)CCC3(C)C1CC2 (stereo not drawn) [androstenone]	11.5	1.07	1.53	1.13	1.02	0.873	0.877	1.31	2.11	1.38	0.888	0.678	1.32	–	1.08	0.652	0.99	0.994	1.2	–
CC(=O)c1ccccc1 [acetophenone]	0.508	0.764 and 0.613	1.08	1.05	0.768	1.12 and 0.715	1.09	0.668	1.21	3.56	0.819	1.05	1.98	–	1.24	1.04 and 1.1	1.06 and 0.982	1.17 and 0.778	1.03 and 0.784	–
CCCCCC(=O)O [caproic acid]	0.907	0.948	0.15	0.702	0.226	0.819	0.132	0.995	1.16	1.03	0.267	0.305	0.336	0.907	0.851	0.16	0.835	0.933	0.883	0.871
C=CCc1ccc(O)c(OC)c1 [eugenol]	0.88 and 1.47	2.15 and 0.897 and 1.41	1.55 and 1.44	0.84 and 1.35	1.58 and 1.38	1.28 and 1.22 and 1.12	1.51 and 1.62	1.94 and 1.47	1.47 and 1.32	–	1.4 and 1.52	1.74 and 1.4	2.31 and 2.5	2.23	1.41 and 1.43	1.5 and 1.14 and 1.32	1.46 and 1.87 and 1.29	1.41 and 1.1 and 1.3	1.45 and 1.07 and 1.31	1.14
CCCCCCCCC=O [nonyl aldehyde]	0.967	1.08	0.849	1.01	0.891	0.893	0.917	1.06	1.01	1.03	0.896	0.687	0.708	2.33	1.04	0.935	0.928	1.23	1.08	1.24
CCCCCCCCCCC=O [undecanal]	0.747	1.04	1.22	0.957	1.38	0.969	0.984	1.06	0.982	1.12	0.898	1.41	1.25	0.847	0.815	0.821	0.976	1.33	0.894	0.978
CC(C)(C)c1ccc(CCC=O)cc1 [bourgeonal]	0.754	0.657	0.127	0.724	0.183	1.05	0.131	0.833	1.16	0.779	0.201	0.186	0.228	–	0.586	0.15	0.772	1.07	0.862	–
COC(=O)c1ccccc1 [methyl benzoate]	0.987	0.619 and 0.749	0.798	0.761	0.835	1.11 and 0.946	0.896	1.53	1.22	2	0.597	1.01	0.937	–	0.917	0.741 and 1.04	0.891 and 1.24	0.451 and 1.12	0.562 and 0.949	–
O=C1CCCCCCCCCCCCCCO1 [pentadecalactone]	0.805	0.771	1.14	0.851	1.18	0.773	0.924	0.807	1.01	1.04	0.954	1.28	1.39	1.4	0.714	1.09	1.07	1.21	0.702	0.917
CC1=NC(C)SC1C (stereo not drawn)	0.922	0.929 and 0.843	1.21	3.33	0.918	1.29 and 1.17	1.05	0.721	1.02	1.06	0.911	1.43	0.97	–	1.54	1.04 and 1.21	0.884 and 1.07	0.744 and 1.02	1.04 and 0.725	–
CC/C=C\CCO [cis-3-hexen-1-ol]	0.86	1.05	0.166	1.14	0.266	0.956	0.158	0.975	0.942	1.25	0.252	0.307	0.334	1.06	1	0.179	0.83	1.01	0.668	1.18
C=CCc1ccc(OC(C)=O)c(OC)c1 [eugenol acetate]	1.7	1.74	1.94	1.79	1.49	1.59	1.83	1.87	1.64	1.54	1.76	1.55	2.77	3.11	1.3	1.49	1.54	2.08	1.74	1.83
CC(C)(O)CCCC1=CCC(C=O)CC1 (stereo not drawn) [lyral]	–	–	–	–	–	–	–	–	–	–	–	–	–	0.96	–	–	–	–	–	1.28
O=C1CCCCC1 [Cyclohexanone]	0.73	0.487 and 0.951	0.802	0.533	0.868	1.13 and 1.09	0.805	0.866	0.575	1.19	0.585	1.15	0.927	–	0.864	0.597 and 1.1	0.624 and 1.08	0.544 and 1.06	0.734 and 0.737	–
CCCCCC(C)=O [2-heptanone]	0.335	0.985 and 0.638	0.915	1.09	0.826	0.969 and 0.658	0.924	0.462	1.22	1	0.764	1.22	1.05	–	1.69	1.32 and 0.754	1.3 and 0.737	0.966 and 0.726	1.05 and 0.504	–
COc1ccccc1O [guaiacol]	1.42	1.3 and 1.08	0.866	0.806 and 0.895	0.703	0.925 and 0.862	0.917	1.31	2.09	5.15	0.704	0.72	0.974	1.12	0.795 and 1.11	0.94	1.19 and 1	1.27 and 1.2	0.719 and 0.948	0.692
CC1=CCC(C(C)(C)O)CC1 (stereo not drawn) [terpineol]	0.82	1.01	1.22	1.09	1.24	0.822	1.07	1.16	0.986	1.29	0.985	1.08	1.41	1.81	0.744	0.849	0.854	0.854	0.898	1.05
C=C(C)C1CC=CCC1 (stereo not drawn) [r-limonene]	0.798 and 1.24	0.844 and 0.675 and 0.686	1.34 and 0.807	–	1.4 and 0.915	1.09 and 0.964 and 0.909	0.987 and 0.929	1.28 and 1.51	1.71 and 1.18	1.25 and 1.58	2.39 and 0.908	1.31 and 1.17	1.64 and 0.963	1.33	0.793 and 0.532	1.15 and 0.543 and 0.847	0.951 and 0.552 and 0.964	0.927 and 0.419 and 1.1	0.936 and 0.543 and 0.598	1.3
CC12CCC(CC1)C(C)(C)O2 [cineole]	0.769	0.938	0.138	0.988	0.208	1.08	0.173	0.994	0.71	1.04	0.26	0.26	0.302	1.12	1.06	0.182	0.956	0.931	0.815	0.965
